Test results published in paper PMC6091194.
Results are given in words; binding and its absence hold for the method and conditions named. In cells and extracts the contact can be indirect. Some binding calls cover weakened binding; strength is not graded here. Each block holds one molecule with its values, some of them ahead of it.

By UniProt entry, the sequences of proteins in these tests, tags left out.
UniProt Q08460: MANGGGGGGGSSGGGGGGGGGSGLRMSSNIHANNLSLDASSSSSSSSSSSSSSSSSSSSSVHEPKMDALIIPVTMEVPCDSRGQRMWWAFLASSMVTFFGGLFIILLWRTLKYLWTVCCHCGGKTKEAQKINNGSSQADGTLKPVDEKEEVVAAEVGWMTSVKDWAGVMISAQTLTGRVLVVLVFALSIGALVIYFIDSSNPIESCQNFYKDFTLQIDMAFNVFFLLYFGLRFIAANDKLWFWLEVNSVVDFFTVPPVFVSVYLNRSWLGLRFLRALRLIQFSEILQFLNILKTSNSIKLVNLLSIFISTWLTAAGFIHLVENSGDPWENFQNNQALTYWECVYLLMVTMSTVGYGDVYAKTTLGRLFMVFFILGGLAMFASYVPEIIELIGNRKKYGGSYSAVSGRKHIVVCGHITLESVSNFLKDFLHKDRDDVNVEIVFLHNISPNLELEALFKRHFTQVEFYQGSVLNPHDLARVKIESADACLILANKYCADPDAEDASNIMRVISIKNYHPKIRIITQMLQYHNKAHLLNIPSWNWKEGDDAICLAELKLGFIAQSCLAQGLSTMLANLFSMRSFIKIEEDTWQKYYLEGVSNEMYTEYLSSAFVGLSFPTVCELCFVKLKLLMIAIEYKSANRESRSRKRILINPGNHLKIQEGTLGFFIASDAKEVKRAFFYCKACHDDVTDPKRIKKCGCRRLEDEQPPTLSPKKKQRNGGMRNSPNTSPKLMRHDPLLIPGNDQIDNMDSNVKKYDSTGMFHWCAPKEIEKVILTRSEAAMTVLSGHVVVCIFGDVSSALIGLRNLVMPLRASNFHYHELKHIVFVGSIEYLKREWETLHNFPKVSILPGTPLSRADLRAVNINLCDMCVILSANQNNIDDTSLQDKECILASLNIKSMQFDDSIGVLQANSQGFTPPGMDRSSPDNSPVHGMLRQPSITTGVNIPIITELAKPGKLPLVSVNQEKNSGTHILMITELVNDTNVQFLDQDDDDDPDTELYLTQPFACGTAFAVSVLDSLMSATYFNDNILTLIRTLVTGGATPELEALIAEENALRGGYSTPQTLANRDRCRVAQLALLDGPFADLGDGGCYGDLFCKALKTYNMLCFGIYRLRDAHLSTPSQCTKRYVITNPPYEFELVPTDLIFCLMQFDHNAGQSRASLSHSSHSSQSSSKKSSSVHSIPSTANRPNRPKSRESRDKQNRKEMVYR

What was measured:
[1] = target: T1, Secreted protein acidic and cysteine rich (SPARC) (mouse (endogenous in CBA/J mouse cochlear sensory epithelium)) (UniProt P07214); test: co-IP; reciprocal co-IP from P3 mouse cochlear sensory epithelium lysate with antibodies to SPARC or Parvin, Protein G beads; blots probed with BKα or Ilk polyclonal antibody; control rabbit IgG
T1 sequence: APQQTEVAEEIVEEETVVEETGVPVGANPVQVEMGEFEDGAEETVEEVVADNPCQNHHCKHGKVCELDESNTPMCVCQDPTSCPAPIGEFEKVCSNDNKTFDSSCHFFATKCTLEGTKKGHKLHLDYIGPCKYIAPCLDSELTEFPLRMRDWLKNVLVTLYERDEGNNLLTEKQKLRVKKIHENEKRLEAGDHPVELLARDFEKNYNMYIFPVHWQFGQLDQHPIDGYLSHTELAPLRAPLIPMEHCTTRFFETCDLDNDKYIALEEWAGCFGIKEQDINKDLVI

[2] = target: T2, Integrin-linked protein kinase (Ilk) (mouse (endogenous in CBA/J mouse cochlear sensory epithelium)) (UniProt O55222); test: co-IP; immunocomplex capture from P3 mouse cochlear sensory epithelium lysate with anti-Kcnma1 or anti-Ilk polyclonal antibody, rec-Protein G Sepharose 4B beads, 4 °C; washes in PBS and PBS/0.1% Triton X-100; blots probed with anti-SPARC or anti-Parvin; control rabbit IgG
T2 sequence: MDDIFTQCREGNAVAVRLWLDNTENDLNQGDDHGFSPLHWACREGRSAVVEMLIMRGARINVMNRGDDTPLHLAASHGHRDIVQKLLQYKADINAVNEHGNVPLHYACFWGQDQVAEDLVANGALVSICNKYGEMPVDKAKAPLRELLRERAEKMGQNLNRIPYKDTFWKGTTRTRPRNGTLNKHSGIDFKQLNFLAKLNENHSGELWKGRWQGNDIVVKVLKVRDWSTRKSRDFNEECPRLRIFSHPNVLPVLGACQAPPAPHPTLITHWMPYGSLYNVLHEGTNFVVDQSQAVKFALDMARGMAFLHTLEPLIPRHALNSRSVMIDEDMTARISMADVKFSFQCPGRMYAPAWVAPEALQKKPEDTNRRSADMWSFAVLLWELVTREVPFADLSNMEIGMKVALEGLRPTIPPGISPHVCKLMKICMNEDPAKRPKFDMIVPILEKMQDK

[3] = target: Kcnma1, large conductance calcium-activated potassium channel (mouse (endogenous in CBA/J mouse cochlear sensory epithelium)) (UniProt Q08460); test: as above

- binding [1]: binds
Molecule: Kcnma1, large conductance calcium-activated potassium channel (from UniProt Q08460 1-1209)

- binding [2]: binds
B1: Parvin α (actopaxin) (protein, UniProt Q9EPC1 1-372)
chain: MATSPQKSPLVPKSPTPKSPPSRKKDDSFLGKLGGTLARRKKAKEVSEFQEEGMNAINLPLSPISFELDPEDTLLEENEVRTMVDPNSRNDPKLQELMKVLIDWINDVLVGERIIVKDLAEDLYDGQVLQKLFEKLESEKLNVAEVTQSEIAQKQKLQTVLEKINETLKLPPRSIKWNVDSVHAKNLVAILHLLVALSQYFRAPIRLPDHVSIQVVVVQKREGILQSRQIQEEITGNTEALSGRHERDAFDTLFDHAPDKLNVVKKTLITFVNKHLNKLNLEVTELETQFADGVYLVLLMGLLEGYFVPLHSFFLTPDSFEQKVLNVSFAFELMQDGGLEKPKPRPEDIVNCDLKSTLRVLYNLFTKYRNVE

- binding [3]: binds
B2: Secreted protein acidic and cysteine rich (SPARC) (protein, UniProt P07214 18-302)
chain: APQQTEVAEEIVEEETVVEETGVPVGANPVQVEMGEFEDGAEETVEEVVADNPCQNHHCKHGKVCELDESNTPMCVCQDPTSCPAPIGEFEKVCSNDNKTFDSSCHFFATKCTLEGTKKGHKLHLDYIGPCKYIAPCLDSELTEFPLRMRDWLKNVLVTLYERDEGNNLLTEKQKLRVKKIHENEKRLEAGDHPVELLARDFEKNYNMYIFPVHWQFGQLDQHPIDGYLSHTELAPLRAPLIPMEHCTTRFFETCDLDNDKYIALEEWAGCFGIKEQDINKDLVI
